From article PMC9998450

Legend:
[1] = molecular target: T1, recombinant GST-YgfB (Pseudomonas aeruginosa) (UniProt Q9HTW5); assay: pull-down; 10 µM recombinant GST or GST-YgfB bound to MagneGST beads, incubated with 1 ml cell lysate of ID40∆ygfB::alpA-HiBiT::HA-alpR for 45 min at 4 °C; 50 mM Tris pH 7.5, 300 mM NaCl, 0.5% IGEPAL, 2 mM DTT; eluted with 25 mM glutathione; AlpA-HiBiT detected with LgBiT on the blot; only the target purified
T1 sequence: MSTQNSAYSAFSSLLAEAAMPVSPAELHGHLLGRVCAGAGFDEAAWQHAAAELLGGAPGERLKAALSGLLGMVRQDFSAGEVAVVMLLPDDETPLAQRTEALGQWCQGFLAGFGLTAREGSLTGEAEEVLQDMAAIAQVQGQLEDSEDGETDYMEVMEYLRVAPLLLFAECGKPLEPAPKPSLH

[2] = molecular target: recombinant His-MBP-AlpA (Pseudomonas aeruginosa); assay: pull-down; 10 µM recombinant His-MBP-AlpA or His-MBP bound to MagneHis Ni particles, incubated with 10 µM recombinant YgfB for 45 min at 4 °C; 50 mM Tris pH 7.5, 25 mM imidazole, 300 mM NaCl, 0.5% IGEPAL, 2 mM DTT; eluted with 350 mM imidazole; blot with anti-YgfB; both purified

Molecule: AlpA-HiBiT (Pseudomonas aeruginosa ID40)
- binding [1]: binds

B1: recombinant YgfB (protein, UniProt Q9HTW5 1-184)
chain: MSTQNSAYSAFSSLLAEAAMPVSPAELHGHLLGRVCAGAGFDEAAWQHAAAELLGGAPGERLKAALSGLLGMVRQDFSAGEVAVVMLLPDDETPLAQRTEALGQWCQGFLAGFGLTAREGSLTGEAEEVLQDMAAIAQVQGQLEDSEDGETDYMEVMEYLRVAPLLLFAECGKPLEPAPKPSLH
- binding [2]: binds

These are yes or no findings as the source states them, for the method shown. Binding calls can cover weak binding; strength is not graded here. For some assays here: In cells and extracts the contact can be indirect. For some assays here: Where a sequence is shown, tags or fusion partners need not be part of it.
